The other results are listed elsewhere or left out.
What follows are compounds tested on T1, CTL2-GFP (C. trachomatis L2/434/Bu, GFP-expressing). Details: bulk GFP, single well; 28.5 h, 10 µM; inhibitor.
T1 construct: L2/434/Bu, GFP-expressing
Set-up: species or system HeLa; Intracellular C. trachomatis growth in HeLa cells, bulk GFP fluorescence relative to DMSO

Row | SMILES | % of control remaining [%]
1 | O=C(CCC(=O)c1ccccc1)NC1CCc2ccccc21 (stereo not drawn) [CBK003351] | 145.785
2 | Cc1nnc(CN2CCOc3ccc(Br)cc3C2)o1 [CBK304079] | 133.032
3 | Cc1c(S(=O)(=O)NCCN(C)C)sc2ccc(C(C)C)cc12 [CBK170357] | 97.1984
4 | O=C(Nc1ccc2oc(-c3cccnc3)nc2c1)c1ccc(-c2cccc([N+](=O)[O-])c2)o1 [CBK262945] | 92.7403
5 | Cc1cn(S(=O)(=O)N(C)C)nc1-c1ccccc1 [CBK005210] | 156.817
6 | CC(CN1CCOCC1)OC(=O)c1ccco1 (stereo not drawn) [CBK264606C] | 117.253
7 | Cc1cc(C(=O)O)c2[nH]c3c(c2c1)CCCC3 [CBK028885] | 116.883
8 | O=C(O)c1ccc(CN2CCOC[C@H]2c2nc(-c3ccc(F)cc3)c[nH]2)cc1 [CBK289304] | 138.505
9 | Cc1ccc(OC(C)C(=O)NNC(=O)c2ccc([N+](=O)[O-])cc2)cc1 (stereo not drawn) [CBK269065] | 85.215
10 | O=C(CCn1cccn1)Nc1ccc(OC2CCCC2)cc1 [CBK281861] | 113.654
11 | CS(=O)(=O)N1CC2(CCN(CC3CCCCC3)CC2)c2ccccc21 [CBK084018] | 120.459
12 | O=[N+]([O-])c1ccc(/C=N/c2cccc(-c3nc4ccccc4s3)c2)cc1 [CBK293918] | 139.212
13 | O=C(C1CCC1)N1CCC2(CC1)Nc1cccnc1-n1cccc12 [CBK284505] | 74.0593
14 | Cc1ccc(-c2ccc(CCC(=O)O)n2CC(=O)O)cc1 [CBK286922] | 137.239
15 | C=CCn1c(COc2ccc(Cl)cc2)nnc1SCC(=O)O [CBK263171] | 96.7701
16 | Cc1cc(Cl)c(OCCNCCO)c(Br)c1 [CBK265066G] | 72.9129
17 | Cc1ccc(SCCNC(=O)CSc2n[nH]c(=O)n2C2CC2)cc1 [CBK295605] | 130.685
18 | CSc1nnc(Cc2nnc(SC)n2-c2ccccc2)n1-c1ccccc1 [CBK267145] | 125.412
19 | Cc1oc(C(=O)O)cc1CSCc1cc(C(=O)O)oc1C [CBK263275] | 125.978
20 | c1ccc(Cn2cc(-c3nccnc3OC(c3ccccc3)c3ccccc3)cn2)cc1 [CBK107093] | 58.0993
21 | O=C(CN1CCOCC1)N1CCC(Cn2cncn2)(C2CCCCC2)CC1 [CBK136803] | 103.895
22 | CS(=O)(=O)N1CCCc2cc(-c3csc(-c4cnccn4)n3)ccc21 [CBK305239] | 114.42
23 | O=C(c1ccccc1F)N1CCC(O)(c2cccnc2F)CC1 [CBK284356] | 128.385
24 | CC(=O)N1CCCc2cc(C(O)CN3CCC(O)(c4ccc(F)cc4)CC3)ccc21 (stereo not drawn) [CBK286481] | 145.403
25 | CN(Cc1ccccc1)c1nc2c(c(=O)n(C)c(=O)n2C)n1CCSc1ncccn1 [CBK269564] | 120.418
26 | COc1ccc(Cl)cc1N1CCN(C/C=C/c2ccccc2)CC1 [CBK126415] | 89.0426

Row | SMILES | % of control remaining [%]
27 | CS(=O)(=O)N(Cc1ccc(Cl)cc1)c1ccc(C(=O)Nc2cccnc2)cc1 [CBK263334] | 88.3638
28 | CN(C)Cc1cc(CN(C)C)c(O)c(C(C)(C)C)n1 [CBK260969] | 100
29 | O=C(Nc1ccc(N2CCN(C(=O)c3ccccc3F)CC2)cc1)c1nc[nH]n1 [CBK269497] | 118.769
30 | O=C(Nc1ccc(S(=O)(=O)NCC2CCCO2)cc1)c1cc(-c2ccccc2)nc2ccccc12 (stereo not drawn) [CBK267537] | 108.842
31 | O=C(CC1CCCC1)NCCn1nc(-c2cccs2)ccc1=O [CBK283841] | 98.0461
32 | COc1cc(/C=C2\NC(=S)NC2=O)c(Cl)cc1O [CBK102003] | 150.891
33 | CCc1nn(CC(=O)NC2CC2)c(=O)c2cc3sc(C)cc3n12 [CBK284099] | 122.523
34 | CC(=O)Nc1ccc(S(=O)(=O)N2CCC3(CC2)NC(=O)c2cc(-c4ccoc4)ccc2O3)cc1 [CBK115856] | 89.2181
35 | O=C(NC(Cc1cccs1)c1nccs1)c1ccncc1 (stereo not drawn) [CBK285134] | 118.442
36 | Cc1ccc(C(=O)c2coc3ccc(O)cc23)cc1 [CBK115557] | 135.006
37 | N#Cc1c(N)nc2c(c1-c1cccnc1)CCCC2 [CBK287885] | 141.019
38 | O=C(Nc1ccc(Br)c2cccnc12)c1ccc(Cn2cc(Cl)cn2)o1 [CBK265893] | 125.071
39 | Cc1ccc(C2C(C(=O)c3sc(-c4ccccc4)nc3C)=C(O)C(=O)N2CCN(C)C)o1 (stereo not drawn) [CBK234004] | 177.903
40 | Cc1ccc2c(CC(=O)N(C)CCc3cn[nH]c3)coc2c1 [CBK283239] | 115.486
41 | Cc1nccn1CC(C)C(=O)NCCN(C)C1CCCCC1 (stereo not drawn) [CBK282040] | 122.075
42 | O=C(Cc1ccccc1Cl)NCc1nnc(-c2cccs2)o1 [CBK284643] | 95.6653
43 | Cc1nn(S(=O)(=O)c2cccc3nsnc23)c(C)c1Cl [CBK270323] | 114.609
44 | Cc1ccsc1CN(C)C(=O)NC1CCCc2c1cnn2CCO (stereo not drawn) [CBK306349] | 97.3158
45 | CCN(CCO)c1ccc(Nc2cc(-c3cc4ccccc4o3)ncn2)cc1 [CBK090999] | 185.239
46 | CCNC(=O)N1CC2(CCN(CCS(=O)(=O)c3ccccc3)CC2)c2ccccc21 [CBK126698] | 117.068
47 | O=C(c1ccc2ccccc2n1)N1CCC(Cc2ccccc2)CC1 [CBK200184] | 103.183
48 | CC(=O)Nc1cccc(-c2cncc(N[C@H](CO)C(C)C)n2)c1 [CBK065475] | 92.2296
49 | COc1ccc(Cn2ncnc2CC2CCNCC2)cc1 [CBK307071] | 142.567
50 | c1ccc(-c2noc(CN3CCN(C(c4ccccc4)c4ccccc4)CC3)n2)cc1 [CBK265844] | 196.647
51 | Cc1ccc(N(CC(=O)N/N=C/c2ccccc2)S(=O)(=O)c2ccccc2)cc1 [CBK262090] | 117.091

Two of these compounds, set out differently.
Row,SMILES,% of control remaining [%]
9,Cc1ccc(OC(C)C(=O)NNC(=O)c2ccc([N+](=O)[O-])cc2)cc1 (stereo not drawn) [CBK269065],85.215
10,O=C(CCn1cccn1)Nc1ccc(OC2CCCC2)cc1 [CBK281861],113.654

Quoted from the listing:
O=C(Nc1ccc2oc(-c3cccnc3)nc2c1)c1ccc(-c2cccc([N+](=O)[O-])c2)o1 [CBK262945] | % of control remaining [%]: 92.7403
Cc1ccc(-c2ccc(CCC(=O)O)n2CC(=O)O)cc1 [CBK286922] | % of control remaining [%]: 137.239
